According to publication PMC10061497:
No constants are given. Whether binding was seen depends on the method and setting. In cells and extracts the contact can be indirect. These calls come from enrichment with a bait or labelling near it, and not all partners need be listed. Where a sequence is shown, tags or fusion partners need not be part of it.

Amino acid sequences for entries named in this document (tags omitted). A change or cut given only in a name is not applied to a line headed by its entry.
UniProt Q38C07: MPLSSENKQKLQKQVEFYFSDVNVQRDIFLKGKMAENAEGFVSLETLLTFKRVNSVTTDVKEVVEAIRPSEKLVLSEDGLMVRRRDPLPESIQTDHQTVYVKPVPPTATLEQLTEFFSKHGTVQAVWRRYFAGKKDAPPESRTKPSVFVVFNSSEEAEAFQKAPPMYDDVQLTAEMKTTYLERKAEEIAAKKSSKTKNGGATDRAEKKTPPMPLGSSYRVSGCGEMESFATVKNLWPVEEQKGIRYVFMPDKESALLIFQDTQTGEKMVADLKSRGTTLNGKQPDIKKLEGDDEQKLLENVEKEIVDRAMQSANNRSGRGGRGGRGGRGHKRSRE
UniProt Q389U4: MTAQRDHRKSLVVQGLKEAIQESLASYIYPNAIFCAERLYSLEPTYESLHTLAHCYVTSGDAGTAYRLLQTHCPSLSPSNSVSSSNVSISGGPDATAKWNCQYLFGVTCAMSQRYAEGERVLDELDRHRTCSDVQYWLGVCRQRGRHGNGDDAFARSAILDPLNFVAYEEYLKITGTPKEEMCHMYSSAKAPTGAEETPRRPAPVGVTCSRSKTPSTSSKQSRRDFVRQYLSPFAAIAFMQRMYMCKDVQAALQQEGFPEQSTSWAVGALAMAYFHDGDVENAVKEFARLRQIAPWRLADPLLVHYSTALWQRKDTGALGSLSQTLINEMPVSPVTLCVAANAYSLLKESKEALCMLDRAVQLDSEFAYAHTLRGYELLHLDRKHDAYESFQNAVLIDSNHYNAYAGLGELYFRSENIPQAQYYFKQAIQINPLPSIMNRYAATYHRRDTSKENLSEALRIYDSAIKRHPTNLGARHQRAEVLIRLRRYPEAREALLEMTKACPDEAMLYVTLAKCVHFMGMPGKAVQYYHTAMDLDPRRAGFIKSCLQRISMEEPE
UniProt Q38F23: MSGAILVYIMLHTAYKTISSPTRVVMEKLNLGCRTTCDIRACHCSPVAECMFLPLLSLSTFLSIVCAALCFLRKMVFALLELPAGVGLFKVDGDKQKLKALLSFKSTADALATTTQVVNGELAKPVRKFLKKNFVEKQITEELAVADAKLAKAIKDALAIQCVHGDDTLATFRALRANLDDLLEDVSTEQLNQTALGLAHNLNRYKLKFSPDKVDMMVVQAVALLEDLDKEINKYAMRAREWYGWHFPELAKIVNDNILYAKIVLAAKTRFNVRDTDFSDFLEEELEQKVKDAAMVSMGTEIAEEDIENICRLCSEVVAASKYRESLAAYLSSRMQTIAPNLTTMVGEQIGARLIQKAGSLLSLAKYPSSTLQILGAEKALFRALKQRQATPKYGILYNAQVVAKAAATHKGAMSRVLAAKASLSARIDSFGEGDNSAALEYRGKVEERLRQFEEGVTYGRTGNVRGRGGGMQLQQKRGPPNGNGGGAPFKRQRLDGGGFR
UniProt Q382Z6: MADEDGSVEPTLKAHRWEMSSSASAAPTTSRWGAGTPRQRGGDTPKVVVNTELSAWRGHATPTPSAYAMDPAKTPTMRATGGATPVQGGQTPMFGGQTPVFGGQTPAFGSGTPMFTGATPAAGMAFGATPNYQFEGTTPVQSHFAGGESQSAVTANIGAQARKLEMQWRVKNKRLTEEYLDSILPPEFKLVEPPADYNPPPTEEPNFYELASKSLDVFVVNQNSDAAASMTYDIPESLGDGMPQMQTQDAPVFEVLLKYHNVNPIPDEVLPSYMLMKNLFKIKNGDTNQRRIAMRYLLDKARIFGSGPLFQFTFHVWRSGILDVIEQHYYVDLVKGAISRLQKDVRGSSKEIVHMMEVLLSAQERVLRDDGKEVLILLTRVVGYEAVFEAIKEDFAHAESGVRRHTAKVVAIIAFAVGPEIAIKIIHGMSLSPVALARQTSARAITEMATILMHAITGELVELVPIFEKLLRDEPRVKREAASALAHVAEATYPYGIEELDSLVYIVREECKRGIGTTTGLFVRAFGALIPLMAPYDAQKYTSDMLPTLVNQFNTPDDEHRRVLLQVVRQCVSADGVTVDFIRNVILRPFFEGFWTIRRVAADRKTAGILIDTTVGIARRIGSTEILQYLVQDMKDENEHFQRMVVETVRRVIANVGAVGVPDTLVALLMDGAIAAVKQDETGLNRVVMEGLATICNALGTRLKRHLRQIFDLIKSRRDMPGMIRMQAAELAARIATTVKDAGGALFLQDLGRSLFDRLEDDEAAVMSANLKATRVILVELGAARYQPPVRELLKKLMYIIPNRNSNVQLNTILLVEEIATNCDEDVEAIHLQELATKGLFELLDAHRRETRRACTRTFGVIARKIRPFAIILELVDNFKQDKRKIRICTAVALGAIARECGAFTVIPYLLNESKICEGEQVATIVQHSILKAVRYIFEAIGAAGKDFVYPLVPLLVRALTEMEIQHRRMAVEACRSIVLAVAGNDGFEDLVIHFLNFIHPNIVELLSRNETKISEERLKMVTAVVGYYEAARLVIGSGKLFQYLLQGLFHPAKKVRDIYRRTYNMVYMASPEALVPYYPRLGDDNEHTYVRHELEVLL
UniProt Q584U1: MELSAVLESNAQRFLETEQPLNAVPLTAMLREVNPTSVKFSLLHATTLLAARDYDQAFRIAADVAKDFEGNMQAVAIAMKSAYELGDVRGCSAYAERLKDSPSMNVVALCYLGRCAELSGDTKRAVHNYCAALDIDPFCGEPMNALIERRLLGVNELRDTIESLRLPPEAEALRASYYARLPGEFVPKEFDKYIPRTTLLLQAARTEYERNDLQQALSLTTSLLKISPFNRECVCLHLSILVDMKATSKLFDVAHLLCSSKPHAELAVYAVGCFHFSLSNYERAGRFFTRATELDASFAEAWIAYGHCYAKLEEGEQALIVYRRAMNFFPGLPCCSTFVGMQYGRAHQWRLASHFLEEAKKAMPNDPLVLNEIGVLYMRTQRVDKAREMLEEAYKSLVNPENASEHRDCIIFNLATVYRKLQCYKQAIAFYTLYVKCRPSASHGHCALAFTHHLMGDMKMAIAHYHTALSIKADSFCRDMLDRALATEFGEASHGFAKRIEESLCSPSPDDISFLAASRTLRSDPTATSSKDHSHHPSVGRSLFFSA
UniProt Q581V4: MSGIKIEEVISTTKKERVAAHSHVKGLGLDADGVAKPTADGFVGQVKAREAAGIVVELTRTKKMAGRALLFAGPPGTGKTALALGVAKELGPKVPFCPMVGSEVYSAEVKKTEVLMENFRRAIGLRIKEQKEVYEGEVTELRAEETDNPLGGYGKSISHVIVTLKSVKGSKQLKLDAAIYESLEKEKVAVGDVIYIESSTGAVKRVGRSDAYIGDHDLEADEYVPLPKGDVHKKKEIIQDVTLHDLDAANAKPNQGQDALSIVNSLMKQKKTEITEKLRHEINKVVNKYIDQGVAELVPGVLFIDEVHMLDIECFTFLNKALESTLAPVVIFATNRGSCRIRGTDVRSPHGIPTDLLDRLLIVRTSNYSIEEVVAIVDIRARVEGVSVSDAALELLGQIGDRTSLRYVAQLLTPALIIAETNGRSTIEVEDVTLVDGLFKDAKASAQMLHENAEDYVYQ
UniProt Q583J3: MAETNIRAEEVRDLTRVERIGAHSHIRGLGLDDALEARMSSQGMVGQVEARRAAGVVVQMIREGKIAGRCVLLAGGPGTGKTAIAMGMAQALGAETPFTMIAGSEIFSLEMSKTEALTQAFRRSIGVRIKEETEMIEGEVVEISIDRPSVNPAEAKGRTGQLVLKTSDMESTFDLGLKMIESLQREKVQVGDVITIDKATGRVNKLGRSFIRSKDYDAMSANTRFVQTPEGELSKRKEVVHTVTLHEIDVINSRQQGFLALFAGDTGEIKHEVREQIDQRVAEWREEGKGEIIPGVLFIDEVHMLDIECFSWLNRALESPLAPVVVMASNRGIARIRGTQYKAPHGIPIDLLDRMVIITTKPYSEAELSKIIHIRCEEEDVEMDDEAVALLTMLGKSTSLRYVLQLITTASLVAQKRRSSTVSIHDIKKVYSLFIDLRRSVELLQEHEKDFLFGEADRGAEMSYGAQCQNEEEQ
UniProt Q38B27: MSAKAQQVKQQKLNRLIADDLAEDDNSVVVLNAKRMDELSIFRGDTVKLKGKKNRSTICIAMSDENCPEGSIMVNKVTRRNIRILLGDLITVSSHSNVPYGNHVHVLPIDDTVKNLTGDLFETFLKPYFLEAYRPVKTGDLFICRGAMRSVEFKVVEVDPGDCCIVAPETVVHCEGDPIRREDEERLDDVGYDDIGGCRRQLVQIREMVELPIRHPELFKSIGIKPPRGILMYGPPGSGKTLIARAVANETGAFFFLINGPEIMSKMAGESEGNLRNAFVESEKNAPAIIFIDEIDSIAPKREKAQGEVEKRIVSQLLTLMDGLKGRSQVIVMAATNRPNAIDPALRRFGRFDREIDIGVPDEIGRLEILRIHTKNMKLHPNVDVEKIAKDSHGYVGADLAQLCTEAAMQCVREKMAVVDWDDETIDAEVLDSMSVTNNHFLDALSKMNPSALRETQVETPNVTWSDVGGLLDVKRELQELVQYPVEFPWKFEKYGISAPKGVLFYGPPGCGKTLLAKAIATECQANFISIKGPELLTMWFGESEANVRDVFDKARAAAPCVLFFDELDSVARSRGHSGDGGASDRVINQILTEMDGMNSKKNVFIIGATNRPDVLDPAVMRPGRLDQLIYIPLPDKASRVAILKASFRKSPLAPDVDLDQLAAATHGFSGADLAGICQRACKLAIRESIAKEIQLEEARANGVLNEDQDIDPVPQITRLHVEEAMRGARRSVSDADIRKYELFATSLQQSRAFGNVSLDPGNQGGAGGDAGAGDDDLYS
UniProt Q38C15: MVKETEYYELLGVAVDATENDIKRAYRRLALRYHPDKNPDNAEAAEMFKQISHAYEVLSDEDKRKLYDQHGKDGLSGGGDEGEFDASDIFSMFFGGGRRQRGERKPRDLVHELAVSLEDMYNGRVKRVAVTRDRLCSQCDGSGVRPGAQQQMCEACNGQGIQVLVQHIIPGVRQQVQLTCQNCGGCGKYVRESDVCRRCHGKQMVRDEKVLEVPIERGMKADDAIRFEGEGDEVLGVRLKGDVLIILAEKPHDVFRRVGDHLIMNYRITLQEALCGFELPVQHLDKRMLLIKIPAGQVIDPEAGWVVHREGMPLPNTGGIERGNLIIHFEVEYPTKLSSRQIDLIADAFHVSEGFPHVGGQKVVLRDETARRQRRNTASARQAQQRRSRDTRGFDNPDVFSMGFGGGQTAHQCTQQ
UniProt Q586I3: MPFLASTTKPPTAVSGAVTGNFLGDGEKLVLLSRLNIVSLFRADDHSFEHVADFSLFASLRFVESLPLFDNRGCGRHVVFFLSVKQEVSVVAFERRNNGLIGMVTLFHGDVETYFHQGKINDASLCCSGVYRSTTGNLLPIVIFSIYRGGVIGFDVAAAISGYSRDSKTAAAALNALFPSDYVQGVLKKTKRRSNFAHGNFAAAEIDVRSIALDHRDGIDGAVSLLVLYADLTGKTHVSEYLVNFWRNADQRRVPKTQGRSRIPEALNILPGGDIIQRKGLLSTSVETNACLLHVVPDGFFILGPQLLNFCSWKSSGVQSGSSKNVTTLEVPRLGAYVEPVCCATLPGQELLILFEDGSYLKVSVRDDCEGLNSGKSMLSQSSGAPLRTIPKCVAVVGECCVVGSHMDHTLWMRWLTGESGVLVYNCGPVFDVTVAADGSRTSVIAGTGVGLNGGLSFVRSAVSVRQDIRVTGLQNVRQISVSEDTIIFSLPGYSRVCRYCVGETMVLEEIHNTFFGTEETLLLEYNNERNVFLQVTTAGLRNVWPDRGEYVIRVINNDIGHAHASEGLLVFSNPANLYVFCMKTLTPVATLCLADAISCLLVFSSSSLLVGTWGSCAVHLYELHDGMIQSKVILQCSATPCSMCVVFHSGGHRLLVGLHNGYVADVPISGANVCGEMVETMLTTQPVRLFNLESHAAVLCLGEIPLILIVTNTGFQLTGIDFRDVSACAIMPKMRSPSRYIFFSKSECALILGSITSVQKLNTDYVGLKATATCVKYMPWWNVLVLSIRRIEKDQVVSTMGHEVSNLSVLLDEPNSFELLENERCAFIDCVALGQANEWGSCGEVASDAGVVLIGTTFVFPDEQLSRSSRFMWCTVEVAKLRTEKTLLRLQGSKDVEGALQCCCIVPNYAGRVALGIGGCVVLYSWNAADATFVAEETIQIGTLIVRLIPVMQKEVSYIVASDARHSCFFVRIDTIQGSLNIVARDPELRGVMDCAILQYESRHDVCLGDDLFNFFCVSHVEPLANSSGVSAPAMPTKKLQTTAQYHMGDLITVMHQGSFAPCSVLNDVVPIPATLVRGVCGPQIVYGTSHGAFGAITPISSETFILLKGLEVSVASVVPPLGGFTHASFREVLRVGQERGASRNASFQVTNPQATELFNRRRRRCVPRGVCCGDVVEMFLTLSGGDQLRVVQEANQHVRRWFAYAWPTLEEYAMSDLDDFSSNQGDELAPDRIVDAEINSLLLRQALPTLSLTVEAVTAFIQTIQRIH

biological target: T1, T. brucei telomerase reverse transcriptase (TbTERT), FLAG-HA-HA tagged (Trypanosoma brucei) (UniProt Q383R0); test: affinity purification with mass spectrometry; native telomerase complexes precipitated from BF T. brucei lysate (1 mg total protein) with a custom anti-TbTERT C-terminus antibody and protein G Dynabeads, overnight at 4°C; 25 mM Tris-HCl pH 7.5, 150 mM KCl, 1 mM EDTA, 10 mM MgCl2, 0.5% IGEPAL CA630, RNase inhibitor; isotype IgG control; 3 IPs and 3 controls; LC-MS/MS
T1 sequence: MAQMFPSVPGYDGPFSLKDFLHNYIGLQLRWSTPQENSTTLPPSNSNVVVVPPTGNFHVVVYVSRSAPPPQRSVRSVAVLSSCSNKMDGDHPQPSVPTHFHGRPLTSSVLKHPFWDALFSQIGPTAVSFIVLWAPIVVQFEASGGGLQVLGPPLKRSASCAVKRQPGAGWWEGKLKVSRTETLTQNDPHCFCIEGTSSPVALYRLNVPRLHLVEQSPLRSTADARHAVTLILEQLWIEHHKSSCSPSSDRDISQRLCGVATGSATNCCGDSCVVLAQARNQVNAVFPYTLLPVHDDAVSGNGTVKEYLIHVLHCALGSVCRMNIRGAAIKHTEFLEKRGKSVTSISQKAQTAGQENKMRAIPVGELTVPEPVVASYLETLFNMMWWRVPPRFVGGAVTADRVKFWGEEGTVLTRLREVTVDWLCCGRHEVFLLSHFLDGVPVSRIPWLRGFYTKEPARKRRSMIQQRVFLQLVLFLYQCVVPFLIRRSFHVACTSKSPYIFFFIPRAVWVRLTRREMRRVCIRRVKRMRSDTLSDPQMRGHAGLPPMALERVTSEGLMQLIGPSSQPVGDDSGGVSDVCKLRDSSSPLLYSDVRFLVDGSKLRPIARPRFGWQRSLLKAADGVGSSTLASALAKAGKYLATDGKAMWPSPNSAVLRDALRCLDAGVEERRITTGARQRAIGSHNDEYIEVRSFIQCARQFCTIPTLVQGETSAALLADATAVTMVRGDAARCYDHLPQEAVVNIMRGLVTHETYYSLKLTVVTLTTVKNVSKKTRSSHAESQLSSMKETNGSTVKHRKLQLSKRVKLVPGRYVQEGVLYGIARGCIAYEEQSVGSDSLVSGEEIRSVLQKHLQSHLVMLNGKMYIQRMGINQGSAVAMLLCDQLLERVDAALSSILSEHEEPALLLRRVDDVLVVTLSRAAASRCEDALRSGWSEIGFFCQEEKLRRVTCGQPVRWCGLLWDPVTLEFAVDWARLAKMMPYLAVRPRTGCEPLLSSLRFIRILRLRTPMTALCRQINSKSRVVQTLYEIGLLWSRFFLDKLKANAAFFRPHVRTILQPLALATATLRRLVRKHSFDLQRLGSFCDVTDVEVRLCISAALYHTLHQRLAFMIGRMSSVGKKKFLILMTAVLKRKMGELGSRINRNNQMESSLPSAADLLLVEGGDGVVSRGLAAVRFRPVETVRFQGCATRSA

binding, binds:
T. brucei La protein (from UniProt Q38C07)
T. brucei homolog of Poly(A)-specific ribonuclease (PARN) (enzyme)
CDC27 homolog (anaphase promoting complex protein APC3) (from UniProt Q389U4)
TbUMSBP2
Nucleolar protein 58 (NOP58) (from UniProt Q38F23)
Splicing factor 3B subunit 1 (SF3B1) homolog (from UniProt Q382Z6)
CDC16 homolog (anaphase promoting complex protein) (from UniProt Q584U1)
Pontin homolog (RuvB-like DNA helicase) (from UniProt Q581V4)
Reptin homolog (RuvB-like DNA helicase) (from UniProt Q583J3)
yeast CDC48 homolog (AAA+ ATPase protein) (from UniProt Q38B27)
NOP56 (from UniProt Q580Z5)
DnaJ (from UniProt Q38C15)
damage specific DNA binding protein 1 (DDB1) homolog (from UniProt Q586I3)
